Here are results for 1 compound from US20260176290A1, “INHIBITORS OF KRAS(G12D)” (Ranok Therapeutics (Hangzhou) Co. Ltd., priority 2022, published 2026).

The chains behind the UniProt entries cited, without tags or fusion partners. Residues count along the entry.
UniProt P01116, 1-188 isoform 2 G12D: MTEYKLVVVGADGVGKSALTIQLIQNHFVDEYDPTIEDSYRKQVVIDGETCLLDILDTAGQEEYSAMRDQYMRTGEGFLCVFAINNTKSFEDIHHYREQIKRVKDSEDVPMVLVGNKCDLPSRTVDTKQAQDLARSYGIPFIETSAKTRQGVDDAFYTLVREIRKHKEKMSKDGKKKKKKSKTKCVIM

Structures were worked out from names or drawings and are uncertain. Bounds are passed on as bounds.

For one assay, the target named is KRAS (G12D)/SOS1 (Homo sapiens, UniProt P01116, G12D). Nature of the assay: KRAS (G12D)/SOS1 homogeneous time-resolved fluorescence (HTRF) assay. It counts as binding. The following applies: read-out: HTRF of KRAS^G12D-SOS1; absence of GTP, 4° C. for 3 hr. On the technique in general: In TR-FRET formats the signal depends on donor and acceptor labels being close together.

Assay [1] deals with AGS gastric carcinoma cells [heterozygous G12D]. Briefly: Cancer cell line proliferation (CellTiter-Glo), AGS. As to conditions: read-out: CTG(IC50), ABS-72 H(nM) AGS.
Assay [2] relates to A-427 lung carcinoma cells [heterozygous G12D]. Nature of the assay: Cancer cell line proliferation (CellTiter-Glo), A-427. The following applies: read-out: CTG(IC50), ABS-72 H(nM) A427. In general terms: In ATP-based viability assays light output follows the ATP content of the culture.
Assay [3] deals with ASPC1 pancreatic adenocarcinoma cells [homozygous G12D]. Briefly: Cancer cell line proliferation (CellTiter-Glo), ASPC1. The following applies: read-out: CTG(IC50), ABS-72 H(nM) ASPC-1, ASPC-1 cells.
Assay [4] deals with SW1990 pancreatic adenocarcinoma cells [homozygous G12D]. Briefly: Cancer cell line proliferation (CellTiter-Glo), SW1990. The following applies: read-out: CTG(IC50), ABS-72 H(nM) SW1990.

Regarding `C#Cc1c(F)ccc2cc(O)cc(-c3ncc4c(N5CC6NC(C5)C5CC65)nc(OCC5(CN6CCC(F)CC6)CC5)nc4c3F)c12` (centres unmarked), the IC50 on KRAS (G12D)/SOS1 is less than 100 nM; in assay [1] it was 100 to 1000 nM; in assay [2] it was 100 to 1000 nM; in assay [3], 100 to 1000 nM; in assay [4], 100 to 1000 nM.
